Source: publication PMC7226469, “Polyketide-Derived Secondary Metabolites from a Dothideomycetes Fungus, Pseudopalawania siamensis gen. et sp. nov., (Muyocopronales) with Antimicrobial and Cytotoxic Activities” (Biomolecules, 2020)
≈ marks a conversion by molar mass, not a printed value.

Tested on: Pseudomonas aeruginosa
Experiment: MIC, 96-well serial dilution; note: key: (-): no inhibition
Type: cell-based
Conditions: strain PA14, starting concentration 66.7 µg/mL, control volume in brackets, read-out: Minimum Inhibitory Concentration (MIC)
Protocol: Gentamicin, kanamycin, nystatin, and oxytetracycline were used as positive controls against tested organisms. […] Epothilone B and methanol were used as positive and negative control, respectively.
The polyketides 1–5 were evaluated for their antimicrobial activity against selected microorganisms (Table 3) and cytotoxicity against two mammalian cell lines, HeLa cells KB3.1 and mouse fibroblast cell line L929 (Table 4). The starting concentration for antimicrobial assay and cytotoxicity assay were 66.7 and 300 µg/mL, respectively and the substances were dissolved in MeOH (1 mg/mL). […] Results were expressed as MIC or minimum inhibitory concentration (μg/mL) and IC50 or half maximal inhibitory concentration (μM) (Table 3 and Table 4).

CNC(C)C1CCC(N)C(OC2C(N)CC(N)C(OC3OCC(C)(O)C(NC)C3O)C2O)O1 (stereo not shown) [G, Gentamicin, reference compound]
MIC: 0.8 µg/mL (≈ 1.68 µM)
